According to article PMC5031962:
No constants are given. Whether binding was seen depends on the method and setting. Binding calls can cover weak binding; strength is not graded here.

Molecular target: chemokine domain of CX3CL1 (human)
Experiment: fluorescence change of a 5-TAMRA-labelled peptide, single concentration; 500 nM 5-TAMRA peptide with or without 2 μM CCL2 or CX3CL1 in HBSS with 1 mM CaCl2 and 1 mM MgCl2; 20 minutes at RT; excitation 520 nm, emission 580 nm; both purified

Binder: STLNLKNEN (L-5-Carboxytetramethylrhodamine (5-TAMRA) at the C-terminal) [CBP1-EC peptide, 5-TAMRA fluorescent]
- binding: binds

Binder: SKFTNNMLAIAG (L-5-Carboxytetramethylrhodamine (5-TAMRA) at the C-terminal) [CBP2-EC peptide, 5-TAMRA fluorescent]
- binding: binds
